Results: paper PMC8249388
Results are given in words; binding and its absence hold for the method and conditions named. Binding seen in cells or lysates may run through a third protein. Some binding calls cover weakened binding; strength is not graded here. Tags and fused reporters may be left off the sequences shown.

The chains behind the UniProt entries cited, without tags or fusion partners.
UniProt Q8K0V4: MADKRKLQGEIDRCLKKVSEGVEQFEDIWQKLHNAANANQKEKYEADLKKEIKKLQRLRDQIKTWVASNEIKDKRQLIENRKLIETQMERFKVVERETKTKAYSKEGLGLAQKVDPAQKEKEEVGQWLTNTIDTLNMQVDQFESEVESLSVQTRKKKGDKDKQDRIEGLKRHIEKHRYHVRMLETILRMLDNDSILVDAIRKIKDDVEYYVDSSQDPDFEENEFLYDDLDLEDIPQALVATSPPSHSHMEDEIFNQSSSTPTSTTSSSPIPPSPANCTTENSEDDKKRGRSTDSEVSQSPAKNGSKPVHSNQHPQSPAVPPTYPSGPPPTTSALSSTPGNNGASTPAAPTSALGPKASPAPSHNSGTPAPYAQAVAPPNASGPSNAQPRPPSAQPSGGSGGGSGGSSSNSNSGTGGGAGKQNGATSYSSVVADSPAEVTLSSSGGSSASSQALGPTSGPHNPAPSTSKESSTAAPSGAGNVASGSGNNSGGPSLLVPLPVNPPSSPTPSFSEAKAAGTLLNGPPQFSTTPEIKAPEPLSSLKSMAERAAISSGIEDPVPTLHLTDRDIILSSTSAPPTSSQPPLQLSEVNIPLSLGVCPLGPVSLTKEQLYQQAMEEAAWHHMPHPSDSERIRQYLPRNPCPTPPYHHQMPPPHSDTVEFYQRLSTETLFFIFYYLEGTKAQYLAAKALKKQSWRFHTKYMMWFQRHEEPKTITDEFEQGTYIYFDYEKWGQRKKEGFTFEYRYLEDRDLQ
UniProt A5YKK6: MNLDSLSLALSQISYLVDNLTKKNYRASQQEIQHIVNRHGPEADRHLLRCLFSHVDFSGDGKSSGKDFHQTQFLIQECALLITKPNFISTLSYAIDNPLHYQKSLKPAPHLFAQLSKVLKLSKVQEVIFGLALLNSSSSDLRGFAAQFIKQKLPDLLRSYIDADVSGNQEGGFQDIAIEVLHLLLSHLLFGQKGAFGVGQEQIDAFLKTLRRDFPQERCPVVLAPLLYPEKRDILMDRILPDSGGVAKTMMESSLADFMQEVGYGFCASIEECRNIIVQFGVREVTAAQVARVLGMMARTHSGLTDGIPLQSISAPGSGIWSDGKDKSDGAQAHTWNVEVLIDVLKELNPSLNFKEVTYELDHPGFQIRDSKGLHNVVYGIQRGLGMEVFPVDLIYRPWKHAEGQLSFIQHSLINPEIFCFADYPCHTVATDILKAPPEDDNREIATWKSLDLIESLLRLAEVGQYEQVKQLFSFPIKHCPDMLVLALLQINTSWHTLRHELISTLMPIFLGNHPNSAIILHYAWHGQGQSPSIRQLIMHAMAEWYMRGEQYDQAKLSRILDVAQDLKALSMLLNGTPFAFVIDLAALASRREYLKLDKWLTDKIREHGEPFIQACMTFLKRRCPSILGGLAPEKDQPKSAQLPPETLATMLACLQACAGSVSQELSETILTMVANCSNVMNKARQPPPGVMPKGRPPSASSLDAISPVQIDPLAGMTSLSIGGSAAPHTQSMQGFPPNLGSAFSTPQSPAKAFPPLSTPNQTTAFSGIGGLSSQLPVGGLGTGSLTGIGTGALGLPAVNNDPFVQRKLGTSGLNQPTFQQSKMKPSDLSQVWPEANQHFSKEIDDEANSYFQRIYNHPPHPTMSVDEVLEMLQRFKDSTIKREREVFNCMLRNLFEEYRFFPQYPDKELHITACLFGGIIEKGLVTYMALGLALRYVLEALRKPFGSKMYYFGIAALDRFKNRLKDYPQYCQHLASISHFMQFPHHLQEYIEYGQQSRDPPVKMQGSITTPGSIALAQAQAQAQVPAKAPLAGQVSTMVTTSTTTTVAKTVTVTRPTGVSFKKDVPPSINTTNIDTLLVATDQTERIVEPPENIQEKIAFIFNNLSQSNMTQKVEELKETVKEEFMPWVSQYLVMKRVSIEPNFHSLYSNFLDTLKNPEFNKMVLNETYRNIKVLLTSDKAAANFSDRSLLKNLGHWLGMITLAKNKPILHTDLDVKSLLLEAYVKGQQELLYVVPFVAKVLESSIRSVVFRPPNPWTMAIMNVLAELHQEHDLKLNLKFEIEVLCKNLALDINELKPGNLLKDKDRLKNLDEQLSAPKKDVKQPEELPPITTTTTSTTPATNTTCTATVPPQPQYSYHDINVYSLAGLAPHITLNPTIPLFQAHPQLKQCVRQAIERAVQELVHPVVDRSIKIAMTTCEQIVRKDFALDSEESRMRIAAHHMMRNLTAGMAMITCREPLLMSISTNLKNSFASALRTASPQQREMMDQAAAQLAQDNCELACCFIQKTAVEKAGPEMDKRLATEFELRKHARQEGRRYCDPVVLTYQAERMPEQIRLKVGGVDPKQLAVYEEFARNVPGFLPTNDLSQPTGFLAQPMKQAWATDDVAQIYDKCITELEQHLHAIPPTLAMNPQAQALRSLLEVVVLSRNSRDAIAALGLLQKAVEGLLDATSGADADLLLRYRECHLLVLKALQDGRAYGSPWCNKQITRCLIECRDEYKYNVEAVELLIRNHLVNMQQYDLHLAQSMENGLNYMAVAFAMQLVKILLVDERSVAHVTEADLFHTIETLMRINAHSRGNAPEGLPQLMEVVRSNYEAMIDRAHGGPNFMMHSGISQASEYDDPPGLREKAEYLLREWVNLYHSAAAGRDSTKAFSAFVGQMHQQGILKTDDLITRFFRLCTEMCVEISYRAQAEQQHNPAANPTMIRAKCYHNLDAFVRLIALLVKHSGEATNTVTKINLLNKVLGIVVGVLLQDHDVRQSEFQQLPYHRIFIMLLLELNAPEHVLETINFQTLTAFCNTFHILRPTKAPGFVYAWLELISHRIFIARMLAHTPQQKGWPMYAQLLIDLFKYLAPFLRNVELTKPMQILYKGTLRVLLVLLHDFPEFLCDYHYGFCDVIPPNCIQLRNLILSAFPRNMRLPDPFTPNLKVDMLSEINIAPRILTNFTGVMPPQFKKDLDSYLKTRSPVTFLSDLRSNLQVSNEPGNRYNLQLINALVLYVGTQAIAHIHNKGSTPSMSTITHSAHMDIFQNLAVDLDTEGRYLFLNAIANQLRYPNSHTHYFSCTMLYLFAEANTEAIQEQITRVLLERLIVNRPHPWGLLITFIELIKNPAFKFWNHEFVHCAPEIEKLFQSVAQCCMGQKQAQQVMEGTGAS

Biological target: T1, HA-Bicc1 (WT), hemagglutinin epitope-tagged mouse Bicc1 (mouse) (UniProt Q99MQ1)
T1 sequence: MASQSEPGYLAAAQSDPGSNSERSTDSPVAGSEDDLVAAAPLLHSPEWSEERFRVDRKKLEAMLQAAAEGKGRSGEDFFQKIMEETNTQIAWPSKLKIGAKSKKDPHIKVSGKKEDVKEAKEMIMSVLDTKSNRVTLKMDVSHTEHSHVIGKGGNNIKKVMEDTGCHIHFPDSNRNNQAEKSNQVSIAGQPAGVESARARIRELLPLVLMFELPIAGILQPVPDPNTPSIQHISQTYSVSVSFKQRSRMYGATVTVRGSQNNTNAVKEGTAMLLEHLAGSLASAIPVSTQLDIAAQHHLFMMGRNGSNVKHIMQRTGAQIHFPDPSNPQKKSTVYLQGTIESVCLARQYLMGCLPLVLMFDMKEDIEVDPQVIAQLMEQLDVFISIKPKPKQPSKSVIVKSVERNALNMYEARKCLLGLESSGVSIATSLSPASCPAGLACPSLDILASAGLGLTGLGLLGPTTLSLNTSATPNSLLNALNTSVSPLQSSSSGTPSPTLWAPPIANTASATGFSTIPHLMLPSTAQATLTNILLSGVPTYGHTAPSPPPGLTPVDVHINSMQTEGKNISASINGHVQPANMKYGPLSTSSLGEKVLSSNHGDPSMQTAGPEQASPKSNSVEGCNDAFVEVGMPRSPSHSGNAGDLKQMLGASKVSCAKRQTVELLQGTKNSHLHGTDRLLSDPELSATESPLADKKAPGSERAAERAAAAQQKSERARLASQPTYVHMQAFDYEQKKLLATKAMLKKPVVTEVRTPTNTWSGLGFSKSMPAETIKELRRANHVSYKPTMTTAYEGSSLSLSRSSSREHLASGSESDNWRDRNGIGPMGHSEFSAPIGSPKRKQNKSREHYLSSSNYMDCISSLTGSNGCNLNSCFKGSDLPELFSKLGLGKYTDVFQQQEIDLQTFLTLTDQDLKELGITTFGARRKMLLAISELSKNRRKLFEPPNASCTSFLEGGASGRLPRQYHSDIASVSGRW
Assay: co-IP; Extracts of transfected HEK293T cells (20 mM Tris-HCl pH 7.4, 2.5 mM MgCl2, 100 mM NaCl, 5% glycerol, 1 mM DTT, 0.05% NP-40) on anti-HA beads, 2.5 h at 4 °C; washes with 200 mM NaCl, 0.1% NP-40; immunoblot with antibodies to HA, Cnot1, FLAG; with or without RNase A (12.5 µg/mL, 10 min RT) before the beads

| Substance | binding |
| --- | --- |
| Cnot3-Myc-FLAG, mouse Cnot3 (from UniProt Q8K0V4 1-751) | binds |
| endogenous Cnot1 (from UniProt A5YKK6 1-2376) | binds |
